PubChem BioAssay AID485298 (National Center for Advancing Translational Sciences (NCATS), 2010)
The whole screen tested about 320,000 compounds, of which about 740 (0.23%) were called active. This list was built around the results that the source calls inconclusive (neither active nor inactive); the mix of calls is not that of the screen. Calls follow the shape of the dose curve; as a rule, active = well fitted activation curve with a large enough effect; inconclusive = small, poorly fitted or top-dose-only effect; inactive = no such curve, though single readings can be large or run the other way. A potency beside an inconclusive call is a rough fit, not a confirmed value.

Assay: qHTS Assay for Small Molecule Inhibitors of Mitochondrial Division or Activators of Mitochondrial Fusion; also: nearly all actives have a fitted effect of over 45% in size;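 as to growth rescue (activation): temperature-sensitive fusion mutants such as fzo1-1 at 37 °C on non-fermentable ethanol glycerol medium; % of control where 0% means no effect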
Conditions: S. cerevisiae fusion-defective mutant growth rescue, CellTiterGlo 48 h; growth rescue (activation): at 46.1 µM (top of the series) unless noted
Procedure, shortened: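 Growth-rescue viability read-out: after 48 h at the non-permissive 37C in glycerol/ethanol YPEG, yeast mitochondrial fusion mutants are measured by CellTiterGlo luminescence; compounds (23 nl pinned per well) restoring growth score as division inhibitors or fusion activators.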
Potency is read from the fitted curve at half-maximal effect.

SMILES	Potency	growth rescue (activation)
C/C(CC(=O)NCc1ccc(Cl)cc1)=N\NC(=O)Cc1ccccc1	inconclusive: 11.2 µM [activator, partial curve]	–
O=C(CNc1ccc2ccccc2c1)N/N=C/c1cc2ccccc2nc1Cl	active: 14.1 µM	–
O=c1oc2cc(O)c(Cl)cc2c2ccccc12	inconclusive: 11.2 µM [activator, partial curve]	–
Cc1nc(N2N=C3/C(=C/c4ccc(F)cc4)CCCC3C2c2ccc(F)cc2)sc1C(=O)N(C)C (configuration not stated)	inconclusive: 6.31 µM [activator, partial curve]	–
Cc1cc(Cl)ccc1OC(C)C(=O)N1CCCN(C(=O)C(C)Oc2ccc(Cl)cc2C)CC1 (configuration not stated)	inconclusive: 25.1 µM [activator, single point]	–
C(=N\Nc1nc(-c2ccccc2)cs1)/c1cccs1	inconclusive: 35.5 µM [activator, single point]	–
CCc1nc(N2CCCCC2C)c2oc3ccccc3c2n1 (configuration not stated)	inconclusive: 25.1 µM [activator, single point]	–
CN(Cc1ccccc1)Cc1nc2scc(-c3ccccc3)c2c(=O)[nH]1	inconclusive: 35.5 µM [activator, partial curve]	–
O=S(=O)(c1ccc(Nc2ccc(-c3ccc4c(c3)OCCO4)nn2)cc1)N1CCCC1	–	inactive: 5.66%
Cc1nnn(C23CC4CC(CC(CC(=O)Nc5ccc(C)c(Cl)c5)(C4)C2)C3)n1	inconclusive: 31.6 µM [activator, single point]	–
c1ccc(C2Nc3ccccc3Oc3ccccc32)cc1 (configuration not stated)	inconclusive: 12.6 µM [activator, partial curve]	–
COc1ccc(C2CC(c3ccc(Br)cc3)=NN2C(=O)c2cccnc2)cc1 (configuration not stated)	active: 17.8 µM	–
O=C(O)/C=C/C(=O)NNC(=O)c1ccc(Cl)cc1Cl	inconclusive: 12.6 µM [activator, partial curve]	–
O=C(OCC(=O)N1CCN(C(=O)c2ccco2)CC1)c1cc(-c2cccc(Br)c2)nc2ccccc12	inconclusive: 11.2 µM [activator, partial curve]	–
Cc1cnc(CN(C)Cc2c(C(=O)N3CCCCCCC3)nc3ccc(Cl)cn23)[nH]1	–	inactive: -2.47%
N#Cc1c(N)nc2c(c1-c1ccc3c(c1)OCO3)CCc1ccccc1-2	inconclusive: 7.08 µM [activator, partial curve]	–
COc1cc2c(cc1NC(=O)c1cc(-c3cccnc3)nc3ccc(C)cc13)oc1ccccc12	–	inactive: 0.93%
Cc1ccc2oc(C(=O)NCc3ccccc3)cc(=O)c2c1	inconclusive: 11.2 µM [activator, partial curve]	–
C=CCSc1nc(-c2ccc(OC)cc2)c(C#N)c(=O)n1CC=C	–	inactive: 2.71%
Cc1ccc(NS(=O)(=O)c2c(C)nc3sccn3c2=O)cc1C	–	inactive: 3.25%
O=S(=O)(Nc1ccc(N=Nc2ccccc2)cc1)c1ccccc1	inconclusive: 10 µM [activator, partial curve]	–
COCCn1c(SCC(=O)NCc2ccccc2)nc2ccccc21	–	inactive: -4.15%
FC(F)(F)c1cnc(NNC(=S)Nc2ccc(Cl)cc2)c(Cl)c1	inconclusive: 31.6 µM [activator, single point]	–
O=C(Nc1nc(-c2ccc(Cl)cc2)cs1)NC1CCCCC1	inconclusive: 3.98 µM [activator, full curve, poor fit]	–

SMILES	Potency	growth rescue (activation)
COc1ccccc1NC(=O)NCc1ccccc1F	–	inactive: -4.93%
COc1ccc2nc(NC(=O)Nc3ccccc3OC)sc2c1	inconclusive: 25.1 µM [activator, single point]	–
CCC(C)OC(=O)c1[nH]c2c(c1C)C(=O)CC(c1ccc(N(C)C)cc1)C2 (configuration not stated)	inconclusive: 11.2 µM [activator, partial curve]	–
CN(C(=O)c1sc2nc(N3CCCC3)c3c(c2c1N)CC(C)(C)OC3)c1ccccc1	inconclusive: 2.51 µM [activator, full curve]	–
COc1ccc2[nH]c(=O)c(CN(C)C(=O)COc3ccccc3)cc2c1	–	inactive: -4.29%
CCc1ccc(CNc2ccc(N3CCN(C(C)=O)CC3)cc2)cc1	–	inactive: -6.66%
O=C(Cn1cnc2ccccc2c1=O)c1ccccc1	–	inactive: -5.38%
O=[N+]([O-])c1cn(Cc2ccc(Cl)cc2)cn1	–	inactive: 0.606%
Cc1ccc(-n2nnc3ccccc3c2=O)cc1C	–	inactive: 1.31%
COc1cccc(Nc2c3c(nc4c(-c5ccccc5)c(C)nn24)CCC3)c1	inconclusive: 35.5 µM [activator, single point]	–
CCOC(=O)NC(=O)/C(C#N)=N\Nc1cccc(Cl)c1	inconclusive: 22.4 µM [activator, single point]	–
O=C(O)c1ccc(NS(=O)(=O)c2ccc3c(c2)C(=O)c2cc(S(=O)(=O)Nc4ccc(C(=O)O)cc4)ccc2-3)cc1	inconclusive: 22.4 µM [activator, partial curve]	–
Clc1ccc(-c2nnc(-c3ccco3)nc2N2CCCCC2)cc1	active: 11.2 µM	–
Brc1ccc(CSc2ncnc3nc[nH]c23)cc1	active: 12.6 µM	–
COc1cc2c(cc1OC)CN(c1nc(CN3CCOCC3)nc3sc4c(c13)CCC(C)C4)CC2 (configuration not stated)	inconclusive: 25.1 µM [activator, single point]	–
O=C(CN1C(=O)c2ccccc2C1=O)N1CCN(C2c3ccccc3-c3ccccc32)CC1	inconclusive: 17.8 µM [activator, partial curve]	–
Cc1oc2ccc(O)cc2c1C(=O)c1ccc([N+](=O)[O-])cc1	–	inactive: 19.9%
COc1ccccc1NC(=O)c1ccccc1C(=O)O	inconclusive: 35.5 µM [activator, single point]	–
COc1ccc(N/C=C(\C#N)c2nc3ccccc3n2C)c(OC)c1	inconclusive: 12.6 µM [activator, partial curve]	–
CCCCc1nc(N2CCOCC2)c(C#N)c2c1COC(C)(C)C2	–	inactive: 24.8%
CC(=O)Nc1ccc(-c2cc(-c3ccc(NC(C)=O)cc3)nc(-c3ccc(NC(C)=O)cc3)n2)cc1	–	inactive: -2.17%
O=C(CCC(=O)N1CCN(S(=O)(=O)c2ccc(Cl)cc2)CC1)Nc1ccc(Cl)cc1Cl	inconclusive: 12.6 µM [activator, partial curve]	–
COc1cc(OC)cc(C(=O)NCc2ccc(-n3cccc3)cc2)c1	–	inactive: 4.42%
CCc1ccccc1N(CC)C(=O)C1CCN(c2ncnc3c2nc2n3CCCCC2)CC1	inconclusive: 12.6 µM [activator, partial curve]	–

Entries of single compounds, looked up by structure.
COc1cc(OC)cc(C(=O)NCc2ccc(-n3cccc3)cc2)c1 is listed with growth rescue (activation): inactive: 4.42%
O=C(OCC(=O)N1CCN(C(=O)c2ccco2)CC1)c1cc(-c2cccc(Br)c2)nc2ccccc12 is listed with Potency: inconclusive: 11.2 µM [activator, partial curve]
CN(Cc1ccccc1)Cc1nc2scc(-c3ccccc3)c2c(=O)[nH]1 is listed with Potency: inconclusive: 35.5 µM [activator, partial curve]
COc1cccc(Nc2c3c(nc4c(-c5ccccc5)c(C)nn24)CCC3)c1 is listed with Potency: inconclusive: 35.5 µM [activator, single point]

Continued:

SMILES	Potency	growth rescue (activation)
COc1cccc(-c2nn(-c3ccc(C)cc3)cc2C(=O)N2CCc3cc(OC)c(OC)cc3C2)c1	inconclusive: 17.8 µM [activator, single point]	–
CN(C)S(=O)(=O)c1cccc(NC(=O)COC(=O)/C=C/c2ccco2)c1	–	inactive: -3.29%
COc1ccc(-n2cc(CN(C)CCO)c(-c3cccc(F)c3)n2)cc1	inconclusive: 20 µM [activator, partial curve]	–
Cc1ccc(NC(=O)C(NC2CCCc3ccccc32)c2ccccc2)cc1Cl (configuration not stated)	inconclusive: 22.4 µM [activator, partial curve]	–
CC(C)(C)C(=O)Nc1cc(S(=O)(=O)Nc2ccc(Cl)cc2)ccc1Cl	active: 17.8 µM	–
CN(C(=S)NC(=O)CCCOc1ccc(Cl)cc1Cl)c1ccccc1	–	inactive: 20.7%
CN(C)S(=O)(=O)c1ccc(Cl)c(NC(=O)CN2CCC(Cc3ccccc3)CC2)c1	inconclusive: 10 µM [activator, partial curve]	–
O=C(COC(=O)c1ccccc1C(=O)c1ccccc1)NCCc1ccc(Cl)cc1Cl	inconclusive: 17.8 µM [activator, partial curve]	–
CC1=NC(=O)C(N=Nc2cccc(C(=O)O)c2)N1c1ccccc1 (configuration not stated)	inconclusive: 11.2 µM [activator, partial curve]	–
O=C(/C=C/c1cccs1)N1CCCCC1	–	inactive: -2.63%
NS(=O)(=O)c1cccnc1Nc1cccc(Cl)c1Cl	inconclusive: 15.8 µM [activator, partial curve]	–
CN(C)c1ccc(-c2nn3c(-c4ccccc4Cl)nnc3s2)cc1	–	inactive: -0.648%
CC(=O)c1ccc(OCc2cc(=O)n3ccsc3n2)cc1	inconclusive: 5.62 µM [activator, single point]	–
C/C(=N\NC(=O)c1sccc1C)c1cccnc1	–	inactive: -0.404%
Cc1ccc2c(nc3s/c(=C\c4ccc(-c5ccccc5C(=O)O)o4)c(=O)n32)c1C	inconclusive: 12.6 µM [activator, partial curve]	–
N/C(=N\OC(=O)CSc1ccccc1)c1ccccn1	–	inactive: 4.63%
COc1cccc(/C=C(/C(=O)OCC(N)=O)c2ccccc2)c1	–	inactive: 3.98%
CC(C)(C)c1cc(C(=O)NCc2ccccc2)ccn1	inconclusive: 10 µM [activator, partial curve]	–
Cc1nc2ccc(NC3=NCCCCC3)cc2s1	–	inactive: -3.8%
COc1ccc(-c2nc(CS(=O)CC(=O)NCc3ccc4c(c3)OCO4)c(C)o2)cc1OC (configuration not stated)	inconclusive: 3.16 µM [activator, partial curve]	–
C[C@H]1c2cccc(O)c2C(O)=C2C(=O)[C@]3(O)C(O)=C(C(N)=O)C(=O)[C@@H](N(C)C)[C@@H]3[C@@H](O)[C@@H]21	inconclusive: 0.82 µM [activator, full curve, poor fit]	–
CCC(C)n1cnc2c(c1=O)c1nc3ccccc3nc1n2Cc1ccc2c(c1)OCO2 (configuration not stated)	inconclusive: 12.6 µM [activator, partial curve]	–
Cc1csc(NC(=O)C(C)Oc2ccc(Br)cc2)n1 (configuration not stated)	inconclusive: 25.1 µM [activator, single point]	–
COc1cc(O)c(C(CC(=O)N2CCOCC2)c2ccc(N(C)C)cc2)c(OC)c1 (configuration not stated)	inconclusive: 8.91 µM [activator, partial curve]	–
